We go through six molecules from PMC13426208.

Sequences of proteins named here, by UniProt entry; tags and fusion partners are left off.
UniProt Q9UPQ3: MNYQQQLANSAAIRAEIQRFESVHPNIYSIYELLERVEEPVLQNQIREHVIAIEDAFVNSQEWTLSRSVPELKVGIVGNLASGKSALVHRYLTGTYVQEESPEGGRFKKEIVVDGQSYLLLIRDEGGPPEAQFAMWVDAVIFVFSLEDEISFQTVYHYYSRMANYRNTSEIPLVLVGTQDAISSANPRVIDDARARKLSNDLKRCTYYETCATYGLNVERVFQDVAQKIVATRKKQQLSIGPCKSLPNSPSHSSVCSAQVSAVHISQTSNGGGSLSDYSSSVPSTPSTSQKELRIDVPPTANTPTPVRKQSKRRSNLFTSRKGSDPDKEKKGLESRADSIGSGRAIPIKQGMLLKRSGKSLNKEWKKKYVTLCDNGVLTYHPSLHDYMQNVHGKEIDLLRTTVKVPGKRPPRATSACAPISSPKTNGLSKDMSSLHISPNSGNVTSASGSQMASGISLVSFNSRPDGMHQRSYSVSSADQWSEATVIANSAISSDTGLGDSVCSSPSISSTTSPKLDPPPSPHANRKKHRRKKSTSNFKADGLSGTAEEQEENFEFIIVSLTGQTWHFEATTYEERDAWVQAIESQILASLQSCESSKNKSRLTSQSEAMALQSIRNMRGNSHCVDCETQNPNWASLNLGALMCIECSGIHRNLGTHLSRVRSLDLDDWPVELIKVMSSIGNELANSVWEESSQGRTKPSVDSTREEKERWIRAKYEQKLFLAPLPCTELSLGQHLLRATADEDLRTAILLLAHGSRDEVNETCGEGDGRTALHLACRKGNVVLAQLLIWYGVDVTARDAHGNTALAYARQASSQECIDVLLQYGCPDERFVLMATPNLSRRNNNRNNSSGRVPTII
UniProt Q96P47: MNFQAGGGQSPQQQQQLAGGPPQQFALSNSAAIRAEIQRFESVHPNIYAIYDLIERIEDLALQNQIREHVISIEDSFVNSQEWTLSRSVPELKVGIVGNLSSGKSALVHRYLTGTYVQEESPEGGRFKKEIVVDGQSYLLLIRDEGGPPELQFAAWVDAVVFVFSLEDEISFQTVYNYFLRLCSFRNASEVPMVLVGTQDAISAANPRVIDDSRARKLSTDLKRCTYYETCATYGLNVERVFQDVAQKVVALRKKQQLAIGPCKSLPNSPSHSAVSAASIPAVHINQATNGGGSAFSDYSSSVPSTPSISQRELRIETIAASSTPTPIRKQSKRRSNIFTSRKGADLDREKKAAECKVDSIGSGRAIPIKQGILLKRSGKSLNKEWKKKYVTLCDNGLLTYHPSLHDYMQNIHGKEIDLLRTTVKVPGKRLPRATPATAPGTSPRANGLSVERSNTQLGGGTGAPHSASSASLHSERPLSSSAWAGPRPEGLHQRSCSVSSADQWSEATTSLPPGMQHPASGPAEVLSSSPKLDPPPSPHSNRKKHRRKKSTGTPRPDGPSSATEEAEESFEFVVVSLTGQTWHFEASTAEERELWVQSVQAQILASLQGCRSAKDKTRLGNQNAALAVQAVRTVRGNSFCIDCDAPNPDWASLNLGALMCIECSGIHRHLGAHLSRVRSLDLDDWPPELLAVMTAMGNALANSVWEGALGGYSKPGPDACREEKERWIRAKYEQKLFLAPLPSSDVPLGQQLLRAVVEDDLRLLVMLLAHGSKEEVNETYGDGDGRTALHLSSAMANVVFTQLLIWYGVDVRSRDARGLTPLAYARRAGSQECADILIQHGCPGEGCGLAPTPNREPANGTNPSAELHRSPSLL
UniProt O00139: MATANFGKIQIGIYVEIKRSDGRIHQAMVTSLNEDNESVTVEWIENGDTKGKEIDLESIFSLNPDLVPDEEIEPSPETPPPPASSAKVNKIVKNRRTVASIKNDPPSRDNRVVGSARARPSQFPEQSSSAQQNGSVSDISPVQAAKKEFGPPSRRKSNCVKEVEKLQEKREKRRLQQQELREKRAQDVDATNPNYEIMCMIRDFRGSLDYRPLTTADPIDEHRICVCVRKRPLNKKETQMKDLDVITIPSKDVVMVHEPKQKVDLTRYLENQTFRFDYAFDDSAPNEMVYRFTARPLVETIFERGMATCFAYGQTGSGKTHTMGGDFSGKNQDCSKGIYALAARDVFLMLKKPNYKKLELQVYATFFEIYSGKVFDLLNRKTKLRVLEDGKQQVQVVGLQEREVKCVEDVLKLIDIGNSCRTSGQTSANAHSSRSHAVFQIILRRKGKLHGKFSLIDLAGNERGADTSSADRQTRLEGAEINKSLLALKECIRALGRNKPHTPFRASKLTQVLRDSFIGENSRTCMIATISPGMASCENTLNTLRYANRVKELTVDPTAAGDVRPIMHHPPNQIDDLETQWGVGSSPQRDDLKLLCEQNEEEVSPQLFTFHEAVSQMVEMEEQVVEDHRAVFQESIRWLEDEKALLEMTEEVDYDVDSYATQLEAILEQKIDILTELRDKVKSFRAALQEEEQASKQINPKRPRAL

In the assay the target is T1, NAT10 acetyltransferase (human (endogenous in iPSC-derived neurons)) (UniProt Q9H0A0).
T1 sequence: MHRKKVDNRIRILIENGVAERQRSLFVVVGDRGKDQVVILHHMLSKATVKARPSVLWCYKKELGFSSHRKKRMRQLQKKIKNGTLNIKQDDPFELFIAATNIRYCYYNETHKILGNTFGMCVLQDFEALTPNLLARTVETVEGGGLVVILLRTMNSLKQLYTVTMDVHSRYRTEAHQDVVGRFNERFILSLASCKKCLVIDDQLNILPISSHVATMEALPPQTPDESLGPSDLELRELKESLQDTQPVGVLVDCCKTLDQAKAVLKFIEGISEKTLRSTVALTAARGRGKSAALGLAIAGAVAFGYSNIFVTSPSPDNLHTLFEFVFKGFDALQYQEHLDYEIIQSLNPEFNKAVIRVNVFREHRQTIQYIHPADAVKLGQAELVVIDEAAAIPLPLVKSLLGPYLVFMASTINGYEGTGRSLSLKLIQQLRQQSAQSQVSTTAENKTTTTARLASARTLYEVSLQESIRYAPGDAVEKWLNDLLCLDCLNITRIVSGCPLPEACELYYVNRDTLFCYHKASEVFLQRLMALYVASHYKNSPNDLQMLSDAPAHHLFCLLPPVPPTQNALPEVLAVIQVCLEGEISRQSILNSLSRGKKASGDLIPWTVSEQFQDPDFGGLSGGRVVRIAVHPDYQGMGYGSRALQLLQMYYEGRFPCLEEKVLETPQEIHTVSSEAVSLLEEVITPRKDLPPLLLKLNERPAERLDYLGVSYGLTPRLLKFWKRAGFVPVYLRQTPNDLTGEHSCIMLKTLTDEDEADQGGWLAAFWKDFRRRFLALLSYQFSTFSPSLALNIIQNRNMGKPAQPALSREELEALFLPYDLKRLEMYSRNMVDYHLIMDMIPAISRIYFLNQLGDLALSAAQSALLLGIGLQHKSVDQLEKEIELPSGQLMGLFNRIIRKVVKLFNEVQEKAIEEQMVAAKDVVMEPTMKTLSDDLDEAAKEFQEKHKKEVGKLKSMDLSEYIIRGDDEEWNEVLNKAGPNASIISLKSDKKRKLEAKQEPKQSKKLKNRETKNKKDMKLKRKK
The experiment in a line: affinity purification with mass spectrometry; NAT10 immunoprecipitated with a polyclonal anti-NAT10 antibody (Proteintech) from 1.4 mg of total protein extracted from iPSC-derived neurons (120 DIV; control and FTD-MAPT genotypes); Bruker ultrafleXtreme MALDI MS, Mascot search.

Results are given in words; binding and its absence hold for the method and conditions named. Binding seen in cells or lysates may run through a third protein. Here binding means that the protein was enriched with, or labelled near, the bait; the list need not be complete.

As to AGAP1 (from UniProt Q9UPQ3 1-857), the binding result is on record as “binds”. Next, AGAP3 (from UniProt Q96P47 1-875): “binds”; MAP1: “binds”. On to “kinesin KIF2A (from UniProt O00139 1-706)”, for which the binding result is listed as “binds”.

B1: SPECC1 (protein, UniProt Q5M775 1-1068)
chain: MRSAAKPWNPAIRAGGHGPDRVRPLPAASSGMKSSKSSTSLAFESRLSRLKRASSEDTLNKPGSTAASGVVRLKKTATAGAISELTESRLRSGTGAFTTTKRTGIPAPREFSVTVSRERSVPRGPSNPRKSVSSPTSSNTPTPTKHLRTPSTKPKQENEGGEKAALESQVRELLAEAKAKDSEINRLRSELKKYKEKRTLNAEGTDALGPNVDGTSVSPGDTEPMIRALEEKNKNFQKELSDLEEENRVLKEKLIYLEHSPNSEGAASHTGDSSCPTSITQESSFGSPTGNQMSSDIDEYKKNIHGNALRTSGSSSSDVTKASLSPDASDFEHITAETPSRPLSSTSNPFKSSKCSTAGSSPNSVSELSLASLTEKIQKMEENHHSTAEELQATLQELSDQQQMVQELTAENEKLVDEKTILETSFHQHRERAEQLSQENEKLMNLLQERVKNEEPTTQEGKIIELEQKCTGILEQGRFEREKLLNIQQQLTCSLRKVEEENQGALEMIKRLKEENEKLNEFLELERHNNNMMAKTLEECRVTLEGLKMENGSLKSHLQGEKQKATEASAVEQTAESCEVQEMLKVARAEKDLLELSCNELRQELLKANGEIKHVSSLLAKVEKDYSYLKEICDHQAEQLSRTSLKLQEKASESDAEIKDMKETIFELEDQVEQHRAVKLHNNQLISELESSVIKLEEQKSDLERQLKTLTKQMKEETEEWRRFQADLQTAVVVANDIKCEAQQELRTVKRKLLEEEEKNARLQKELGDVQGHGRVVTSRAAPPPVDEEPESSEVDAAGRWPGVCVSRTSPTPPESATTVKSLIKSFDLGRPGGAGQNISVHKTPRSPLSGIPVRTAPAAAVSPMQRHSTYSSVRPASRGVTQRLDLPDLPLSDILKGRTETLKPDPHLRKSPSLESLSRPPSLGFGDTRLLSASTRAWKPQSKLSVERKDPLAALAREYGGSKRNALLKWCQKKTQGYANIDITNFSSSWSDGLAFCALLHTYLPAHIPYQELNSQEKKRNLLLAFEAAESVGIKPSLELSEMLYTDRPDWQSVMQYVAQIYKYFET
On to B1, for which the binding result is recorded as “binds”.

B2: THUMPD1 (protein, UniProt Q9NXG2 1-353)
chain: MAAPAQQTTQPGGGKRKGKAQYVLAKRARRCDAGGPRQLEPGLQGILITCNMNERKCVEEAYSLLNEYGDDMYGPEKFTDKDQQPSGSEGEDDDAEAALKKEVGDIKASTEMRLRRFQSVESGANNVVFIRTLGIEPEKLVHHILQDMYKTKKKKTRVILRMLPISGTCKAFLEDMKKYAETFLEPWFKAPNKGTFQIVYKSRNNSHVNREEVIRELAGIVCTLNSENKVDLTNPQYTVVVEIIKAVCCLSVVKDYMLFRKYNLQEVVKSPKDPSQLNSKQGNGKEAKLESADKSDQNNTAEGKNNQQVPENTEELGQTKPTSNPQVVNEGGAKPELASQATEGSKSNENDFS
For the molecule B2, the binding result was “binds”.
